Test results published in publication PMC4625125.
For some of these results: No signal at the amounts used counts as a negative. For some of these results: Where a protein sequence is shown, tags need not be part of it. For some of these results: For at least one entry, the source does not settle the construct or the ends of the probe.

Tests used:
Assay in all cases: EMSA
[1] = biological target: AvaR1 (Streptomyces avermitilis) (UniProt Q82H41); details: 6 ng probe; not stated; modified EMSA as previously described (ref 23); recombinant protein; residues 1-234; protein details: C-terminal His6 (pET23b, from primers); probe letters rebuilt from the primers and the genome
[2] = biological target: T1, AvaR3 (Streptomyces avermitilis) (UniProt Q82H43); details: no binding even at high concentration; not stated; modified EMSA as previously described (ref 23); recombinant protein; residues 1-287; protein details: C-terminal His6 (pET23b, from primers); probe letters rebuilt from the primers and the genome
T1 sequence (looked up): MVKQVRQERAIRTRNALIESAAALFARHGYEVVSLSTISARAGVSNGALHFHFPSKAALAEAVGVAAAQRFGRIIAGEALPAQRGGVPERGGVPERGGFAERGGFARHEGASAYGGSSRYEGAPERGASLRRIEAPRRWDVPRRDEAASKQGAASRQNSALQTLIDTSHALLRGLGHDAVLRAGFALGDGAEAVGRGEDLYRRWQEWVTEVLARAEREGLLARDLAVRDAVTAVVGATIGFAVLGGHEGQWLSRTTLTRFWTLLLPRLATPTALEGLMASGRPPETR

[3] = biological target: T2, CprA (Streptomyces coelicolor M145) (UniProt Q7AKE7); details: 0-0.3 uM protein, 6.6 ng probe; not stated; modified EMSA as previously described (ref 23); recombinant protein; residues 1-215; protein details: C-terminal His6 (pET23b, from primers); probe letters rebuilt from the primers and the genome
T2 sequence (looked up): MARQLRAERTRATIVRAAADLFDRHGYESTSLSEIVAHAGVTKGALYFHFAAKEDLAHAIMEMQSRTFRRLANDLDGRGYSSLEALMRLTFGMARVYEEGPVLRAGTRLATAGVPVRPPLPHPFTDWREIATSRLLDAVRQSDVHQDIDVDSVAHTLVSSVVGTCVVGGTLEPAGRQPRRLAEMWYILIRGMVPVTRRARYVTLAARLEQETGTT

[4] = biological target: T3, CprB (Streptomyces coelicolor M145) (UniProt Q7AKF2); details: 0-1 uM protein, 6.6 ng probe; not stated; modified EMSA as previously described (ref 23); recombinant protein; protein details: C-terminal His6 (pET23b, from primers); probe letters rebuilt from the primers and the genome
T3 sequence (looked up, limits assumed): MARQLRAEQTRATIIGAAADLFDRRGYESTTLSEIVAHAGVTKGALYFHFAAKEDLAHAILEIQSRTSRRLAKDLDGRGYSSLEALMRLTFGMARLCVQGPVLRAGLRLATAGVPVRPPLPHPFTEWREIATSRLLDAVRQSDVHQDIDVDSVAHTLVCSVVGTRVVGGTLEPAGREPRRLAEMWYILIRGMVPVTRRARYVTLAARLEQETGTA

Sequence	binding result [1]	binding result [2]	binding result [3]	binding result [4]
CGAGCTTCTCCCTGGCTTGGGACGGGCTGACGTGAACCACGGGACCCGAGAAGGGCTGAGGAAGGGCTGGAGAGCTGCGGAAGAGCTGCGGAGGAGCTGCGGAAGAGCTGCGGAAGAGCTGGAGGTCAAAGATACGTACTAGACGGTTTTGTCTTCAAGTCCCTCTTGCGGTCAAGGGTCATCCCTTACAAGGGAGTTGGGGGTGAGATATGTGTTTTTGAGTGGTTTGTGAGAGGGCGAGGGGAGCATTGAAAAACCGTTCAGCTGGTTTTATCGTCCCGGTCAGGACCGGGCCTGTCTTCGGCGGTGGAGTGGAGGATCGTCGCTGTTAGGGTGCGAACCGCTTGGTCTTTTCCCGCTGGTCGGGACGGTGTCCCGCGATCCGGACGGTGTCCCACTGGTCGGGACGGTGTCCCGCTGGTCGGGCTGGTGCGGAGGGTGCGGATCCCGC (double strand) [Paco]	binds	no binding		
GCGGGATCCTGAGGATCTCCGTGATCGTGGCAGCTTGGTAGCCCTGCTTCTCGAAGACCTGCGCCGCGGCGTCCAGGATCGTCTGCCGCGTGCGGATCGCCCGGTCCTGCTTGGCCATGCCTGCCTCCTTGTTCATGTCTCCCCCGGGAAGGATAGAAAAAAAACCGCTCAGTCTGTATCTTAACGTTCGCGCATACAGAACAGCTCGGCATCACATGATTCCTGGGGGGGACCCATGCCCGAAGCAGTAGTTTTGATCAATTCTGCGTCCGATGCCAACTCGATCGAACAAACCGCATTGCCGGTTCCGATGGCGCTTGTCCACCGGACCAGGGTGCATAAGTAGCTGA (double strand) [PscbA]			binds	binds
